Out of some 53,000 sequences screened, about 3,700 (7%) were called active.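 How the source made its calls: active means gene knockdowns whose robust z-score for IL-1 alpha signal is at least 2 or at most -2, so actives lie on both sides; inactive means the rest.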 The list shows a part of the results.

The experiment in a line: Components of the Cytosolic LPS Sensing Pathway: Gene Identification via Genome-wide siRNA Screen.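 Further: robust z of the log signal after scaling to non-targeting control siRNA wells of the plate.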 The settings on record: RAW264.7 macrophages, IL-1a HTRF, actives lie on both sides, screened at 100 nM (by protocol), cells primed 5 h with Pam3CSK4 first. The method in brief: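 Read-out: IL-1a HTRF on supernatant, divided by plate negative-control median ×100, log-transformed and converted to robust z-score. Cells were RAW264.7 given 100 nM siRNA, Pam3CSK4-primed 5 hours, then LipidA-transfected 24 hour.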
For orientation: Time-resolved FRET reads energy transfer from a long-lived donor to a nearby acceptor.
In the case of GCAACUUUAUAGCAGAAUCTT against Apbb3, the z-score is inactive: -0.874.

With GGGUGGUGUCUUCAAGUCATT against Nat3, the z-score is inactive: 0.129.

For the sequence GGUUUGCCUGCUGAUGACATT against Olfr883, the z-score is inactive: -1.83.

For CCAUUCCAAAGGUAUUAGCTT against Olfr619, the z-score is inactive: -0.244.

For GGAGAUCUGAAUGAAAAUUTT against Zfp280b, the z-score is inactive: -0.738.

Take GGGAAAUUAUUACCAAAAGTT against N4bp1: the z-score is inactive: -0.83.

In the case of GGCUACGUUUUUGUAUUCUTT against Slc35d2, the z-score is inactive: -0.31.

Consider GGAACUUUGUCUUUCAUACTT against Clspn, for which the z-score was inactive: 0.0704.

As to CCGAAGUUAAGACAAAGAATT against Ankrd36, the z-score is inactive: 0.992.

Consider CCCAUUAUGGAGCUAGAAATT against Arid4b, for which the z-score was inactive: -0.846.

For the sequence GCUCAUGUGACUAUUGUUATT against Olfr1512, the z-score was inactive: -0.0798.

As to GGAACAUGUCGUAAAUAAGTT against Trim7, the z-score was inactive: 0.0785.

GGAAAUUUUUCCCAGCUGGTT against Prl8a8: the z-score is inactive: -0.169.

Consider GAACGCGCGAGAAAUGUGATT against Odf3b, for which the z-score was inactive: 0.573.

As to GCCGUCUUUACAUUCCUGATT against Olfr605, the z-score is inactive: 0.8.

As to CCAUUUAUCCUCUUUUCCGTT against Plekhb1, the z-score was inactive: -1.83.

As for CCCAGUGGUUUUAAAGCAUTT against Commd3, the z-score was inactive: -1.64.

With GCCGAGGACCACAUUAAAGTT against Crtap, the z-score was inactive: 0.241.

In the case of GGAACAACUUCGUACCAUGTT against Zbbx, the z-score is inactive: 0.865.

Turning to GCCGUGAUCGACUUGAAUATT against U2af1, the z-score was inactive: 0.763.

GGGAGACUAUCCUUGCUGGTT against Cryba2: the z-score is inactive: -0.139.

On to GGACAUCUGGGAAUACCUCTT against Actl7a, for which the z-score was inactive: 0.129.

Turning to GCAGUUAAAUGGACUAUCATT against Paip2b, the z-score is inactive: 0.589.

Take GGUGGGAAUGGGAAUCAGUTT against Akr1e1: the z-score was inactive: 0.334.

In the case of “GGUGAAACUGAAUAAAAUCTT against 4931406C07Rik”, the z-score is inactive: -1.46.

Turning to GGUGUUUUCACACUGGAAGTT against Ube2t, the z-score is inactive: 0.317.

Consider GGGUAUUAUCAAGGAGGAGTT against Bclaf1, for which the z-score is inactive: 0.304.

Turning to GCAUACCCUAUUUAGUUUUTT against Gpr33, the z-score was inactive: -0.00896.

For CCAGUGACGGUGUGAUCUUTT against Ccl26, the z-score is inactive: 0.426.

In the case of GCCAAGGUGCAGAUAAGGUTT against Rhox7a, the z-score is active: 2.6.

In the case of “CGUGGAUAGGUUUUUGUGGTT against 2510009E07Rik”, the z-score is inactive: 0.51.

As for GGUGAAUACUUCAGAUACATT against Sult2b1, the z-score is inactive: -0.362.

With GGCUUGAGGCCUAUUUCAGTT against Sod3, the z-score is inactive: 0.524.

As for GCCGUCAUCAUGGAAGGUUTT against Bace1, the z-score was inactive: 0.0589.

For CCACUCCCAUAAGGGCUAUTT against Smo, the z-score was inactive: -0.144.

For GAGAUUUACUCUGGACAUUTT against Hgsnat, the z-score was inactive: 0.72.

Regarding UGUACUGAUACAUACUUCCTT against Olfr1249, the z-score was inactive: -0.487.

In the case of GGAAUCUUUGAGCUGGUGGTT against Mink1, the z-score is inactive: -0.23.

GCUGCUAAGUCGCACAUCUTT against Ppfibp2: the z-score is inactive: 1.32.

Turning to GGCACUUCCAUGCUAAAUUTT against Gpt, the z-score was inactive: 1.29.

Consider CCAUAUGAUAUAGCAUGAGTT against Agtr2, for which the z-score was inactive: -0.894.

Take GGCCGUGAUGCUAGAGAACTT against Zfp661: the z-score is inactive: 0.131.

With GGAGAAGCUAAAAUGUGAGTT against Mboat7, the z-score is inactive: -1.74.

For the sequence GGGAAACAUCUUCCUAUCCTT against Serpina12, the z-score is inactive: -0.958.

In the case of GGAACCACUUUAUUUGUCATT against Dclk1, the z-score was inactive: 1.59.

GCGGGAAACUACGAUAGUCTT against Gykl1: the z-score was inactive: -0.966.

As to GGUUAUUAAAGCCUAUGGCTT against Grcc10, the z-score is inactive: 0.191.

Take “GGAAAUGUUCUUCAUGUCATT against 1110038F14Rik”: the z-score is inactive: -1.95.

For GGAUUUCCUCAUGUGAUCUTT against Smad4, the z-score is inactive: -0.478.

For the sequence “CGGAGUUGAAGUUCAUUUATT against 2700097O09Rik”, the z-score is inactive: 1.25.

In the case of GGGAGAGUCUUUUUUUAAATT against Fndc3b, the z-score was inactive: -0.0889.

In the case of “GGUUGCUGUUUAGUUUUCATT against 1810030O07Rik”, the z-score is inactive: 1.98.

For GGAAUAUGGACCAAGAGAGTT against Plcb2, the z-score was inactive: -1.08.

Consider GCAAGAAUGCAAUUUCUUATT against Olfr904, for which the z-score is inactive: -0.916.

Take GUCUUUAGAGUCAUCCUCUTT against Olfr493: the z-score was inactive: -1.38.

In the case of GGUCCAGGUCUGAAUCUAGTT against Tra2b, the z-score is active: 2.48.

In the case of GGUAGGAAUUUGGAAAACUTT against H2-T24, the z-score was inactive: 1.5.

As to GCAUUAAACUGAUUAUCGATT against Chst15, the z-score is inactive: -0.0941.

In the case of GGAAGACAUAAAGCUCUGUTT against Olfr1242, the z-score is inactive: 0.322.

As for GCAGAUUUUCUCCUGCAAGTT against Insm2, the z-score was inactive: 1.1.

Take GGAUGAGCAGAAAUGUGUATT against Plekho2: the z-score is inactive: 0.931.

With GCCUCGUGUAUCACAGAAUTT against Map1s, the z-score is inactive: -1.09.

Regarding “GCGCAUUAGGAUAUAGACATT against 9530085L02Rik”, the z-score is inactive: 0.491.

On to UACGCUAAGGAAUAAGGACTT against Olfr110, for which the z-score is inactive: 0.102.

For the sequence GGUAGAGACCGCAUAGAAATT against Aqp8, the z-score is inactive: 2.

Turning to GGAUUAUGCAAGUUACAUUTT against Nsf, the z-score is inactive: -0.63.

Consider CCCAUGACUAUCCAAACAATT against Kcnmb2, for which the z-score is inactive: -1.52.

For the sequence GGAGUCACUCUGCUCUUUUTT against Kcnn1, the z-score was inactive: -1.55.

For GGCCUCGAACAGUUUAUUATT against Snx12, the z-score is inactive: 0.471.

For the sequence CCAGACCUGUUGUAAAGACTT against Grn, the z-score is inactive: -1.29.

For GCCCAAAAUGUAAUCAACUTT against Paxbp1, the z-score was inactive: 0.146.

Turning to GCGGAACUUUCAUUGCUGGTT against Rabggta, the z-score is inactive: 1.85.

As to GGAGAGUGAUAUCAAGCCUTT against Lbr, the z-score was inactive: 1.33.

As for UUCCCACUCUGACUAUUUUTT against Olfr970, the z-score was inactive: -0.0332.

With CCAGAAGUCUCAAAUUCUGTT against Ccl8, the z-score is inactive: -0.112.

On to GGCACCUGGAUUUUCUAUGTT against Crygs, for which the z-score is inactive: 0.26.

Take GGGUGUUGACAGCUGUAAATT against C1s2: the z-score is inactive: 0.187.

As to GGAACAUGACAUUUUUGUCTT against Smdt1, the z-score is inactive: -0.561.

In the case of GGAAGAAGAUGACAAUGAATT against Pak3, the z-score is inactive: -1.18.

With “CCUGUUGAGUAAGCAACAATT against 4932416K20Rik”, the z-score was inactive: 0.369.

Turning to CGAUGAUCCUUAAAGGAUUTT against Hes5, the z-score is inactive: 0.44.

Turning to GGUGAUAGAAGUUUACAUGTT against Tnfsf4, the z-score is inactive: 0.513.

Turning to GCCAUCGAGUGUGACGAGATT against Nagpa, the z-score is inactive: 0.651.

Take “GGUCAUUUCACUAGUUUUCTT against 9930014A18Rik”: the z-score was inactive: -0.28.

For the sequence “GGGCAAUAAUGCAAAGUAUTT against 4921522P10Rik”, the z-score was inactive: 1.8.

For the sequence GGCAAUGUGUGUCUACAGUTT against Spdye4b, the z-score was inactive: -0.0613.

For the sequence GGGAAUCAAAUUCGUCUGCTT against Sdr42e1, the z-score was inactive: 1.06.

Consider GCUGUGGUAAACUGAAACUTT against Glis2, for which the z-score was inactive: -1.89.

As for CCUGCUCAGGACGACUUUUTT against Defa20, the z-score is inactive: -1.63.

GGUUGGACUGACUAUCCAUTT against Olfr984: the z-score is inactive: 1.02.

Turning to CCAUCGUGCUAAUAAAUAATT against Gars, the z-score is inactive: -0.408.

Regarding CCAUCCGCCUGUUAGAAAGTT against Mcm9, the z-score was inactive: 0.66.

As to GGAUGACUGAAUGAUGGGATT against Tcl1b5, the z-score was active: -2.15.

GGAAAUCGAGGUUACAAGUTT against Isy1: the z-score is active: -2.64.

On to CGGUGUAAAAUCAUCAUAGTT against Pcdhgb6, for which the z-score was inactive: -0.288.

With GGGAAAUUUGAACAACAACTT against Efnb3, the z-score is inactive: 0.47.

In the case of GGAUGAUAUAUGUAACUUGTT against Nfe2l3, the z-score was inactive: 0.679.

For CGUGCUUAAACUUACUCCATT against Kif18a, the z-score was inactive: 0.348.

For GCAAAUUUGCCCUAAGGACTT against Lpl, the z-score is inactive: -1.28.

Turning to GAGAUUUCUCCUGUUAUUUTT against Scd2, the z-score is inactive: 1.11.

As for GCAAACAUUCGAGAUCUAUTT against Sel1l, the z-score was inactive: 1.56.

For GGCAAACAAAACAUUGUUGTT against Pla2r1, the z-score is inactive: 0.0339.

GCGCGUCUCAAAGCACUUUTT against Tbx15: the z-score is inactive: -1.45.

Consider GGAUCUUGAUACCCUCUACTT against Gp1ba, for which the z-score is inactive: -0.533.

As to CCGGAUCAAGAGCUUUACCTT against Trim29, the z-score is inactive: 0.905.

CCGUCUUCACCUGAUACAGTT against Ube2d2b: the z-score was inactive: 0.501.

The values are drawn from PubChem BioAssay AID1508600 (Functional Genomics Laboratory (NCATS/FGL), 2020).
